# Experimental data from patent publication US20240228612A1.
# Amino acid sequences for entries named in this document (tags omitted). Residues count along the entry.
# UniProt Q96NY8, residues 32-144: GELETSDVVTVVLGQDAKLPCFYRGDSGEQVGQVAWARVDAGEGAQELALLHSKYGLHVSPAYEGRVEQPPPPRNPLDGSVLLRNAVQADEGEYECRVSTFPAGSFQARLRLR
# Changes are numbered by the printed parent chain. Results are given in words; binding and its absence hold for the method and conditions named. Some binding calls cover weakened binding; strength is not graded here.
# B1: anti-human Nectin-4 humanized monoclonal antibody 31HZ (antibody, human IgG1, kappa, V domains shown)
# VH: QVQLVQSGAEVKKPGSSVKVSCKASGYTFTDYWMNWVRLAPGQGLEWIGMIHPSDSETRLNQKFQGRVTLTVDKSTSTAYMELSSLRSEDTAVYYCARWDFRIYYAMDYWGQGTLVTVSS
# VL: DVVITQSPDSLAVSLGERATINCKSSQSLLNTNSQKNYLAWYQQKPGQSPKLLVYFASTRESGVPDRFSGSGSGTDFTLTISSLQAEDVAVYFCQQHYSTPLTFGGGTKVEIKR
# B2: anti-human Nectin-4 humanized monoclonal antibody 74HZ (antibody, human IgG1, kappa, V domains shown)
# VH: QVQLVQSGAEVKKPGSSVKVSCKASGYTFINYWMNWVRQAPGQGLEWIGMIHPSDSATRLNQSFQGRVTLTVDKSTSTAYMELSSLRSEDTAVYYCARWGNFYTVNAWYYFDYWGQGTLVTVSS
# VL: B1 VL with V2I, S28T, T32S, S34T, V54F, G106Q, V110L
# B3: anti-human Nectin-4 humanized monoclonal antibody 56HZ (antibody, human IgG1, kappa, V domains shown)
# VH: QVQLQESGPGLVKPSQTLSLTCTVSGYFNSITSDYDWHWIRHHPGKGLEWMGYISFSGRTYYNPSLKSRVTISHDTSKNQFSLKLSSVTAADTAVYYCARGNYDGFDYWGQGTLVTVSS
# VL: DIVLTQSPATLSLSPGERATLSCRASQNIGTSIHWYQHKPGQSPRLLIKFASESISGIPARFSGSGSGTDFTLTISSLEPEDFAVYYCQQSKSWPTYTFGGGTKVEIKR
# Biological target: human Nectin-4 IgV domain overexpressed on A549 cells (human) (UniProt Q96NY8)
# Experiment: flow cytometry on A549-Nectin-4-IgV cells, 40 µg/mL antibody
row,Binder,binding
1,B1,binds
2,B2,binds
3,B3,binds

# Biological target: human Nectin-4 IgV domain overexpressed on A549 cells (human) (UniProt Q96NY8)
# Experiment: flow cytometry on A549-Nectin-4-IgV cells, single antibody concentration
row,Binder,binding
1,B1,binds
2,B2,binds
3,B3,binds
